Drawing on PMC7287880, “Structural Basis for Broad Substrate Selectivity of Alcohol Dehydrogenase YjgB from Escherichia coli” (Molecules, 2020), this text covers binding for one molecule.

The target in the test is Escherichia coli YjgB (EcYjgB) (Escherichia coli BL21 (DE3)) (UniProt P27250). As to the kind of experiment: crystal structure; crystals of purified EcYjgB, apo (C2, 1.55 Å) and soaked with 5 mM NADP (C222(1), 2.00 Å, with a PEG fragment); the dimer was taken from the crystal by PDBePISA analysis; both purified.

No constants are given. Whether binding was seen depends on the method and setting. Some results given as binding are weak or reduced against the parent protein; the word gives no strength.

B1: Escherichia coli YjgB (EcYjgB) (enzyme, UniProt P27250 1-338)
chain: MSMIKSYAAKEAGGELEVYEYDPGELRPQDVEVQVDYCGICHSDLSMIDNEWGFSQYPLVAGHEVIGRVVALGSAAQDKGLQVGQRVGIGWTARSCGHCDACISGNQINCEQGAVPTIMNRGGFAEKLRADWQWVIPLPENIDIESAGPLLCGGITVFKPLLMHHITATSRVGVIGIGGLGHIAIKLLHAMGCEVTAFSSNPAKEQEVLAMGADKVVNSRDPQALKALAGQFDLIINTVNVSLDWQPYFEALTYGGNFHTVGAVLTPLSVPAFTLIAGDRSVSGSATGTPYELRKLMRFAARSKVAPTTELFPMSKINDAIQHVRDGKARYRVVLKAD
Consider B1, for which the binding result is on record as “binds”.
